Results published in patent publication US20030049246A1.
No constants are given. Whether binding was seen depends on the method and setting. In cells and extracts the contact can be indirect. Some entries that bind do so weakly or less than the wild type.

Chains of the proteins cited; added tags and fusions are not shown. Lines headed by an entry give the natural chain unless they say otherwise; changes in a name come on top.
UniProt Q15797: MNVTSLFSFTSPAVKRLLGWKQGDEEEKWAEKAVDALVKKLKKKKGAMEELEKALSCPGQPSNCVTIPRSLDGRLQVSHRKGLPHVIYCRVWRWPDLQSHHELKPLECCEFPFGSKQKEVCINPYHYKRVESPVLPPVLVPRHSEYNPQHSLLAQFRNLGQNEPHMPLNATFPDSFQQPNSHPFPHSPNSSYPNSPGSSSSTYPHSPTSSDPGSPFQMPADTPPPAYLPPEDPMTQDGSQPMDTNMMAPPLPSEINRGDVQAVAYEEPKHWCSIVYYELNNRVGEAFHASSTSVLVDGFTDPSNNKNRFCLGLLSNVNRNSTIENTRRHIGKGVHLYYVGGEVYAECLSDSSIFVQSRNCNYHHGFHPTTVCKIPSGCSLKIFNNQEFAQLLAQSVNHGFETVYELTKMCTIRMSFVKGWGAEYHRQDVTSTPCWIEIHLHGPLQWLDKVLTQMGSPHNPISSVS
UniProt Q15796: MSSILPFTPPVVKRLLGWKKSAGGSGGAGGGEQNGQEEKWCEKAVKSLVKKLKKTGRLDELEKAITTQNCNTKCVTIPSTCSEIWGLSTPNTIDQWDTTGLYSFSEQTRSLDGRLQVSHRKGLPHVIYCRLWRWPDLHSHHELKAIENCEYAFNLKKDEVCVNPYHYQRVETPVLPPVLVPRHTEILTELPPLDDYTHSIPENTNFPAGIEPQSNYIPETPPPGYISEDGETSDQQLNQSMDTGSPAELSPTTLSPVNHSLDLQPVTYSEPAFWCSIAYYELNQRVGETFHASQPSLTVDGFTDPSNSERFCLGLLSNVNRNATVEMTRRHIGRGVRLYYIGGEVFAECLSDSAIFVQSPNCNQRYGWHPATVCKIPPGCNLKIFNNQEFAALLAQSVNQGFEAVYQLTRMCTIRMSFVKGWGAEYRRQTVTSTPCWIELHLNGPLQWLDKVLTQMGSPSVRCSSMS
UniProt P84022: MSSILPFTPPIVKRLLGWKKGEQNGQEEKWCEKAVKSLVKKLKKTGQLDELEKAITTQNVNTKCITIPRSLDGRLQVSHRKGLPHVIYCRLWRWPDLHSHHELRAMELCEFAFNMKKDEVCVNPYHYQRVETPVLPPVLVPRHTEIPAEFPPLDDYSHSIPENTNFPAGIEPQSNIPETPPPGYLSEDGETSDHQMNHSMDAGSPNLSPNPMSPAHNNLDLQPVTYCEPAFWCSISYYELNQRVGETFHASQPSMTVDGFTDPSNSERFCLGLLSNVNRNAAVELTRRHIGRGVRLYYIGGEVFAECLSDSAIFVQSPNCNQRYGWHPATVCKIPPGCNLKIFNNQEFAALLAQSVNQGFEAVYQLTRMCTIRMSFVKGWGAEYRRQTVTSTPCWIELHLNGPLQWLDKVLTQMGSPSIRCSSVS
UniProt Q13485: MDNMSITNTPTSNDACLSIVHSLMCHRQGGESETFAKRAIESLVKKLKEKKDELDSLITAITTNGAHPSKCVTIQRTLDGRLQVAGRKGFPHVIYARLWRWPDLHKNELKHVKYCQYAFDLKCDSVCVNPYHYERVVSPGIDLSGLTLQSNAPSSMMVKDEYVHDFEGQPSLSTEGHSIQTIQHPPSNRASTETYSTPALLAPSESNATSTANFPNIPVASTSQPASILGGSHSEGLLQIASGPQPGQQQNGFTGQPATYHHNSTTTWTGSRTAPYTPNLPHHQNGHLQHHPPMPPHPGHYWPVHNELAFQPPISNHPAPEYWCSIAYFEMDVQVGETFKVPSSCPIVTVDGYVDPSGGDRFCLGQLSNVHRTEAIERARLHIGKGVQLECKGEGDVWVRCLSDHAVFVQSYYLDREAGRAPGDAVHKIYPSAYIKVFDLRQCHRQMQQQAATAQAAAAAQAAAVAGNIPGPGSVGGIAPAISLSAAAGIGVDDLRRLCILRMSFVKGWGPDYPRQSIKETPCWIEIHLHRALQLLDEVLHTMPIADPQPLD
UniProt P10071: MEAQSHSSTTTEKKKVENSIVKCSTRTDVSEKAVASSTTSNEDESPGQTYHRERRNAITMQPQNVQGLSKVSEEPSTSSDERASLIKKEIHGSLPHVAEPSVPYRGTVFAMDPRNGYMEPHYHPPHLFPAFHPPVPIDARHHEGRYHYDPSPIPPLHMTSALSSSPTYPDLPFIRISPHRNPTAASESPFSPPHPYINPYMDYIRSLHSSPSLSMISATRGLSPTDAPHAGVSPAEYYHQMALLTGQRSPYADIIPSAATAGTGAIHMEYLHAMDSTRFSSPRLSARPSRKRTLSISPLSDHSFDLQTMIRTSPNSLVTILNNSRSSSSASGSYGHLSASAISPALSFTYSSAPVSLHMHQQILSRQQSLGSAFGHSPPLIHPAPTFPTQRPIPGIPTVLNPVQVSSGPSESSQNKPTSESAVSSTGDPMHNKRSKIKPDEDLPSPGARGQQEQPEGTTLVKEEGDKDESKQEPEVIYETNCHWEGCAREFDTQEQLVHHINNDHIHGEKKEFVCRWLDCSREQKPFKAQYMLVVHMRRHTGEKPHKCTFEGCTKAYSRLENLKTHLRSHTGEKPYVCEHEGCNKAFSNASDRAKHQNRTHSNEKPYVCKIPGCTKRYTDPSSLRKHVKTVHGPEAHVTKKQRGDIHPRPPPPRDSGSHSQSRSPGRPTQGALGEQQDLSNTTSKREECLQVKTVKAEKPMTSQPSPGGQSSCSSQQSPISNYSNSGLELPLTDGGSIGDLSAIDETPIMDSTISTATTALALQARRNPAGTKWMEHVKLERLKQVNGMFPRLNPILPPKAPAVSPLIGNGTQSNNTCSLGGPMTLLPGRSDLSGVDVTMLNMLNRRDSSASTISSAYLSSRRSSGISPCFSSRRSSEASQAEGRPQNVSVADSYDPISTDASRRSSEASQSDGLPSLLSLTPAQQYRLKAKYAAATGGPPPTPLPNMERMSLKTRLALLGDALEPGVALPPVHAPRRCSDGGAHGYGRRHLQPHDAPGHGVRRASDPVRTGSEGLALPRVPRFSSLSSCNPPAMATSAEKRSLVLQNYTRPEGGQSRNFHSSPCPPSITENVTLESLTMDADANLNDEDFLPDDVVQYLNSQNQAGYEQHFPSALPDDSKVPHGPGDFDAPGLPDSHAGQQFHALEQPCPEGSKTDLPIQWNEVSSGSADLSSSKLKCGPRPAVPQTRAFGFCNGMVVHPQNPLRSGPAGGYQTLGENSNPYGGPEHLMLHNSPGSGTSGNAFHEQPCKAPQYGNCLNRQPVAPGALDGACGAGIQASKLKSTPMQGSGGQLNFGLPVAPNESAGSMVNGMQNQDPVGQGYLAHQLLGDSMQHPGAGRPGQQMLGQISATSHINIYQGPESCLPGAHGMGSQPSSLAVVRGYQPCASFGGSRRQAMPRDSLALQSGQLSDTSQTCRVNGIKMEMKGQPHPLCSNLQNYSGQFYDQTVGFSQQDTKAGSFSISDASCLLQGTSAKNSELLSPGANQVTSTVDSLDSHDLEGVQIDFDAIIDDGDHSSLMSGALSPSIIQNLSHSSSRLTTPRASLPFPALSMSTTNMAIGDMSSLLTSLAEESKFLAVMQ

What was measured:
Flag-Smad1 [1] = target: Flag-Smad1 (UniProt Q15797); test: co-immunoprecipitation (anti-Flag IP, anti-Myc blot), transfected cells; BMP signaling partially inhibited complex formation
Flag-Smad1 [2] = target: Flag-Smad1 (UniProt Q15797); test: co-immunoprecipitation (anti-Flag IP, anti-Myc blot), transfected R1B/L17 cells; complexes negatively affected by the appropriate agonist
Flag-Smad2 = Flag-Smad2 (UniProt Q15796); test: as above
Flag-Smad3 = Flag-Smad3 (UniProt P84022); test: as above
Flag-Smad4 = Flag-Smad4 (UniProt Q13485); test: as above

binding (Flag-Smad1 [1]): binds
binding (Flag-Smad1 [2]): binds
binding (Flag-Smad2): binds
binding (Flag-Smad3): binds
binding (Flag-Smad4): binds
Substance: Gli3C′ΔClaI (Myc-tagged C-terminal deleted ClaI Gli 3 truncate) (from UniProt P10071 1-745)
